Test results from patent publication US12491217B2, “Compositions and methods for promoting healthy neural development in an unborn baby” (The Regents of the University of California, priority 2019, dated 2025).

Assay: Metabolomics of fetal brain at E14.5
Assay type: in vivo, C57Bl/6J mice
Conditions: metabolite level in E14.5 fetal brain; for fold of change ABX/SPF: ANOVA contrast ABX/SPF; for fold of change GF/ABX: ANOVA contrast GF/ABX; for fold of change GF/SPF: ANOVA contrast GF/SPF; for fold of change GF/Sp: ANOVA contrast GF/Sp; for fold of change Sp/ABX: ANOVA contrast Sp/ABX; for fold of change Sp/SPF: ANOVA contrast Sp/SPF

Compound	fold of change ABX/SPF	fold of change GF/ABX	fold of change GF/SPF	fold of change GF/Sp	fold of change Sp/ABX	fold of change Sp/SPF
Nc1nc2c(ncn2[C@@H]2O[C@H](CO)[C@@H](O)[C@H]2O)c(=O)[nH]1 [compound 3513]	1.05	0.84	0.89	1.07	0.79	0.83
Nc1nc2[nH]cnc2c(=O)[nH]1 [compound 3514]	1.07	0.76	0.82	1.11	0.69	0.73
Cn1cnc2nc(N)[nH]c(=O)c21 [compound 3516]	0.69	0.98	0.68	0.91	1.07	0.74
CN(C)c1nc2c(ncn2[C@@H]2O[C@H](CO)[C@@H](O)[C@H]2O)c(=O)[nH]1 [compound 3522]	0.58	1.17	0.68	0.89	1.32	0.76
Nc1nc2c(ncn2[C@H]2C[C@H](O)[C@@H](COP(=O)(O)O)O2)c(=O)[nH]1 [compound 3528]	0.74	0.87	0.64	0.76	1.15	0.84
Nc1nc2c(ncn2[C@H]2C[C@H](O)[C@@H](CO)O2)c(=O)[nH]1 [compound 3530]	0.94	0.94	0.88	0.96	0.98	0.91
NC(=O)N[C@@H](CC(=O)O)C(=O)O [compound 3533]	1.07	1.48	1.58	1.42	1.04	1.11
O=C1CC(C(=O)O)NC(=O)N1 (stereo not drawn) [compound 3534]	0.89	2.10	1.88	1.94	1.08	0.97
O=C(O)c1cc(=O)[nH]c(=O)[nH]1 [compound 3535]	0.81	1.15	0.94	0.95	1.22	0.99
O=C(O)c1cc(=O)[nH]c(=O)n1[C@@H]1O[C@H](CO)[C@@H](O)[C@H]1O [compound 3537]	0.77	1.05	0.81	1.00	1.05	0.81
O=c1ccn([C@@H]2O[C@H](COP(=O)(O)OP(=O)(O)O)[C@@H](O)[C@H]2O)c(=O)[nH]1 [compound 3541]	0.81	0.68	0.55	0.95	0.72	0.58
O=c1ccn([C@@H]2O[C@H](COP(=O)(O)O)[C@@H](O)[C@H]2O)c(=O)[nH]1 [compound 3542]	0.99	1.12	1.11	1.14	0.98	0.97
O=c1cc[nH]c(=O)[nH]1 [compound 3548]	0.82	0.74	0.61	0.90	0.82	0.68
O=c1[nH]cc([C@@H]2O[C@H](CO)[C@@H](O)[C@H]2O)c(=O)[nH]1 [compound 3549]	0.80	1.06	0.85	0.88	1.21	0.97
O=C1CCN([C@@H]2O[C@H](CO)[C@@H](O)[C@H]2O)C(=O)N1 [compound 3550]	0.73	0.98	0.71	0.78	1.26	0.91
Cc1cn([C@@H]2O[C@H](CO)[C@@H](O)[C@H]2O)c(=O)[nH]c1=O [compound 3552]	0.91	0.80	0.73	0.64	1.25	1.14
O=c1ccn([C@H]2C[C@H](O)[C@@H](CO)O2)c(=O)[nH]1 [compound 3563]	0.78	1.11	0.86	0.81	1.37	1.07
CC(CNC(N)=O)C(=O)O (stereo not drawn) [compound 3565]	0.63	1.20	0.76	1.02	1.18	0.74
NC(=O)NCCC(=O)O [compound 3566]	0.64	0.98	0.62	0.79	1.23	0.79
NCCC(=O)O [compound 3567]	0.74	1.02	0.75	0.90	1.13	0.83
CC(=O)NCCC(=O)O [compound 3568]	0.79	1.31	1.03	1.23	1.06	0.84
Nc1ccn([C@@H]2O[C@H](COP(=O)(O)OP(=O)(O)O)[C@@H](O)[C@H]2O)c(=O)n1 [compound 3572]	0.81	0.81	0.65	1.12	0.72	0.58
Nc1ccn(C2OC(CO)C3OP(=O)(O)OC32)c(=O)n1 (stereo not drawn) [compound 3576]	0.65	0.97	0.63	0.98	0.99	0.64
Nc1ccn([C@@H]2O[C@H](CO)[C@@H](O)[C@H]2O)c(=O)n1 [compound 3577]	0.84	0.87	0.73	0.95	0.92	0.77
Nc1cc[nH]c(=O)n1 [compound 3578]	0.90	1.12	1.01	1.17	0.96	0.86
